{"source": "patent US8709998", "about": "(dated 2014)", "test": "general procedure: Fmoc solid-phase peptide synthesis; Rink Amide MBHA resin (Novabiochem), 0.72 mmol/g; HBTU/HOBT/DIEA; DIC/HOBT or HATU/HOAT for manual couplings", "details": "for final HPLC purity: analytical HPLC", "key": {"[1]": {"details": "whole synthesis, scale of the general procedure 0.25 mmol"}}}
{"substance": "{5-(R)-Ethyl-9,10-difluoro-1,4,5,13-tetrahydro-3H,15H-oxepino[3′,4′:6,7]indolizino[1,2-b]quinoline-3,15-dione-5-O-glycyl-glutaryl}-Aepa-Lys-DTyr-DTyr-cyclo(Cys-Tyr-DTrp-Lys-Abu-Cys)-Thr-NH2", "values": [{"measurement": "final HPLC purity", "setting": "[1]", "value": 95, "unit": "%"}, {"measurement": "isolated yield", "setting": "[1]", "value": 24, "unit": "%"}]}
{"substance": "{5-(R)-Ethyl-9,10-difluoro-1,4,5,13-tetrahydro-3H,15H-oxepino[3′,4′:6,7]indolizino[1,2-b]quinoline-3,15-dione-5-O-glycyl-succinyl}-Aepa-DPhe-cyclo(Cys-Tyr-DTrp-Lys-Abu-Cys)-Thr-NH2", "values": [{"measurement": "final HPLC purity", "setting": "[1]", "value": 99.9, "unit": "%"}, {"measurement": "isolated yield", "setting": "[1]", "value": 48, "unit": "%"}]}
{"substance": "Paclitaxel-2′-glutaryl-(Doc)4-Aepa-DPhe-cyclo(Cys-Tyr-DTrp-Lys-Abu-Cys)-Thr-NH2", "values": [{"measurement": "conjugation yield", "setting": "conjugation step", "value": 60, "unit": "%"}, {"measurement": "final HPLC purity", "setting": "late stage modification step", "value": 99.9, "unit": "%"}]}
{"substance": "H-Doc-Doc-Doc-Aepa-DPhe-cyclo(Cys-Tyr-DTrp-Lys(Aloc)-Abu-Cys)-Thr-NH2", "values": [{"measurement": "isolated mass", "setting": "whole synthesis", "value": 180, "unit": "mg"}, {"measurement": "isolated yield", "setting": "[1]", "value": 42, "unit": "% yield"}]}
{"substance": "Camptothecin-Gly-succinyl-Aepa-DPhe-cyclo(Cys-Tyr-DTrp-Lys-Abu-Cys)-Thr-NH2", "values": [{"measurement": "final HPLC purity", "setting": "[1]", "value": 97, "unit": "%"}, {"measurement": "isolated yield", "setting": "[1]", "value": 21, "unit": "%"}]}
{"substance": "Camptothecin-20-(S)—O-glycinyl-succinyl-Aepa-(Doc)2-DPhe-Gln-Trp-Ala-Val-βAla-His-Leu-Leu-NH2", "values": [{"measurement": "final HPLC purity", "setting": "[1]", "value": 99.9, "unit": "%"}]}
{"substance": "Paclitaxel-2′-O-Val-Succinyl-DPhe-cyclo(Cys-Tyr-DTrp-Lys-Abu-Cys)-Thr-NH2", "values": [{"measurement": "final HPLC purity", "setting": "[1]", "value": 99, "unit": "%"}]}
{"substance": "{5-(R)-Ethyl-9,10-difluoro-1,4,5,13-tetrahydro-3H,15H-oxepino[3′,4′:6,7]indolizino[1,2-b]quinoline-3,15-dione-5-O-glycyl-glutaryl}-(Doc)6-Lys-DTyr-DTyr-cyclo(Cys-Tyr-DTrp-Lys-Abu-Cys-)-Thr-NH2", "values": [{"measurement": "final HPLC purity", "setting": "[1]", "value": 99.9, "unit": "%"}, {"measurement": "isolated yield", "setting": "whole synthesis, scale 0.196 mmol", "value": 25, "unit": "%"}]}
{"substance": "Camptothecin-glutaryl-Doc-Lys-DTyr-DTyr-cyclo(Cys-Tyr-DTrp-Lys-Abu-Cys)-Thr-NH2", "values": [{"measurement": "final HPLC purity", "setting": "[1]", "value": 95, "unit": "%"}, {"measurement": "isolated yield", "setting": "[1]", "value": 16, "unit": "%"}]}
{"substance": "{5-(R)-Ethyl-9,10-difluoro-1,4,5,13-tetrahydro-3H,15H-oxepino[3′,4′:6,7]indolizino[1,2-b]quinoline-3,15-dione-5-O-glycyl-succinyl}-(Doc)4-Aepa-DPhe-cyclo(Cys-Tyr-DTrp-Lys-Abu-Cys)-Thr-NH2", "values": [{"measurement": "final HPLC purity", "setting": "[1]", "value": 97, "unit": "%"}, {"measurement": "isolated yield", "setting": "[1]", "value": 25, "unit": "%"}]}
{"substance": "Camptothecin-20-(S)—O-glycyl-glutaryl-Aepa-Lys-DTyr-DTyr-cyclo(Cys-Tyr-DTrp-Lys-Abu-Cys)-Thr-NH2", "values": [{"measurement": "final HPLC purity", "setting": "[1]", "value": 95, "unit": "%"}, {"measurement": "isolated yield", "setting": "[1]", "value": 11, "unit": "%"}]}
{"substance": "Paclitaxel-2′-Doc-Suc-(Doc)3-Aepa-DPhe-cyclo(Cys-Tyr-DTrp-Lys-Abu-Cys)-Thr-NH2", "values": [{"measurement": "final HPLC purity", "setting": "late stage modification step", "value": 99.9, "unit": "%"}]}
{"substance": "Paclitaxel-Sar-Suc-(Doc)4-Aepa-DPhe-cyclo(Cys-Tyr-DTrp-Lys-Abu-Cys)-Thr-NH2", "values": [{"measurement": "conjugation yield", "setting": "conjugation step", "value": 18.8, "unit": "%"}, {"measurement": "final HPLC purity", "setting": "conjugation step", "value": 95, "unit": "%"}]}
{"substance": "Camptothecin-Gly-glutaryl-Lys-Lys-Lys-DTyr-DTyr-cyclo(Cys-Tyr-DTrp-Lys-Abu-Cys)-Thr-NH2", "values": [{"measurement": "final HPLC purity", "setting": "[1]", "value": 100, "unit": "%"}, {"measurement": "isolated yield", "setting": "[1]", "value": 12, "unit": "%"}]}
{"substance": "Camptothecin-glutaryl-(Doc)2-Lys-DTyr-DTyr-cyclo(Cys-Tyr-DTrp-Lys-Abu-Cys)-Thr-NH2", "values": [{"measurement": "final HPLC purity", "setting": "[1]", "value": 95, "unit": "%"}, {"measurement": "isolated yield", "setting": "[1]", "value": 11, "unit": "%"}]}
{"substance": "Camptothecin-Abu-succinyl-(Doc)4-Lys-DTyr-DTyr-cyclo(Cys-Tyr-DTrp-Lys-Abu-Cys)-Thr-NH2", "values": [{"measurement": "final HPLC purity", "setting": "[1]", "value": 95, "unit": "%"}, {"measurement": "isolated yield", "setting": "[1]", "value": 23, "unit": "%"}]}
{"substance": "Paclitaxel-2′-O-Gly-Succinyl-Aepa-Lys-DTyr-DTyr-cyclo(Cys-Tyr-DTrp-Lys-Abu-Cys)-Thr-NH2", "values": [{"measurement": "final HPLC purity", "setting": "whole synthesis, scale 0.1 mmol", "value": 98, "unit": "%"}]}
{"substance": "Camptothecin-Gly-succinyl-(Doc)6-DPhe-c(Cys-Tyr-DTrp-Lys-Abu-Cys)-Thr-NH2", "values": [{"measurement": "final HPLC purity", "setting": "[1]", "value": 98, "unit": "%"}, {"measurement": "isolated yield", "setting": "[1]", "value": 18, "unit": "%"}]}
{"substance": "Camptothecin-Gly-glutaryl-Lys-DTyr-DTyr-cyclo(Cys-Tyr-DTrp-Lys-Abu-Cys)-Thr-NH2", "values": [{"measurement": "final HPLC purity", "setting": "[1]", "value": 99, "unit": "%"}, {"measurement": "isolated yield", "setting": "[1]", "value": 23, "unit": "%"}]}
{"substance": "Camptothecin-20-(S)—O-glycinyl-succinyl-Aepa-(Doc)4-DPhe-Gln-Trp-Ala-Val-βAla-His-Leu-Leu-NH2", "values": [{"measurement": "final HPLC purity", "setting": "[1]", "value": 99.9, "unit": "%"}]}
{"substance": "Camptothecin-20-(S)—O-glycinyl-succinyl-Aepa-(Doc)4-Gln-Trp-Ala-Val-βAla-His-Leu-Leu-NH2", "values": [{"measurement": "final HPLC purity", "setting": "whole synthesis, scale 0.125 mmol", "value": 96.1, "unit": "%"}]}
{"substance": "Camptothecin-20-glutaryl-(Doc)4-Lys-DTyr-DTyr-cyclo(Cys-Tyr-DTrp-Lys-Abu-Cys)-Thr-NH2", "values": [{"measurement": "final HPLC purity", "setting": "[1]", "value": 98.9, "unit": "%"}, {"measurement": "isolated yield", "setting": "[1]", "value": 10, "unit": "%"}]}
{"substance": "Camptothecin-20-glycinyl-succinoyl-DPhe-cyclo(Cys-Tyr-DTrp-Lys-Abu-Cys)-Thr-NH2", "values": [{"measurement": "final HPLC purity", "setting": "[1]", "value": 94, "unit": "%"}, {"measurement": "isolated yield", "setting": "[1]", "value": 15.6, "unit": "%"}]}
{"substance": "Camptothecin-20-(S)—O-glycyl-succinyl-Doc-Doc-Doc-Doe-Aepa-DPhe-cyclo(Cys-Tyr-DTrp-Lys-Abu-Cys)-Thr-NH2", "values": [{"measurement": "final HPLC purity", "setting": "[1]", "value": 99, "unit": "%"}, {"measurement": "isolated yield", "setting": "[1]", "value": 32, "unit": "%"}]}
{"substance": "Paclitaxel-2′-O-Val-Succinyl-Aepa-Lys-DTyr-DTyr-cyclo(Cys-Tyr-DTrp-Lys-Abu-Cys)-Thr-NH2", "values": [{"measurement": "final HPLC purity", "setting": "[1]", "value": 95, "unit": "%"}]}
{"substance": "Camptothecin-Gly-Suc-(Doc)4-Aepa-Gaba-Gln-Trp-Ala-Val-βAla-His-Leu-Nle-NH2", "values": [{"measurement": "final HPLC purity", "setting": "[1]", "value": 99.4, "unit": "%"}, {"measurement": "isolated yield", "setting": "[1]", "value": 14.4, "unit": "%"}]}
{"substance": "{5-(R)-Ethyl-9,10-difluoro-1,4,5,13-tetrahydro-3H,15H-oxepino[3′,4′:6,7]indolizino[1,2-b]quinoline-3,15-dione-5-O-glycyl-succinyl}-(Doc)4-Aepa-Lys-DTyr-DTyr-c(Cys-Tyr-DTrp-Lys-Abu-Cys)-Thr-NH2", "values": [{"measurement": "final HPLC purity", "setting": "[1]", "value": 99.9, "unit": "%"}, {"measurement": "isolated yield", "setting": "[1]", "value": 48, "unit": "%"}]}
{"substance": "{5-(R)-Ethyl-9,10-difluoro-1,4,5,13-tetrahydro-3H,15H-oxepino[3′,4′:6,7]indolizino[1,2-b]quinoline-3,15-dione-5-O-glycyl-glutaryl}-(Doc)4-Lys-DTyr-DTyr-cyclo(Cys-Tyr-DTrp-Lys-Abu-Cys)-Thr-NH2", "values": [{"measurement": "final HPLC purity", "setting": "[1]", "value": 99, "unit": "%"}, {"measurement": "isolated yield", "setting": "[1]", "value": 21.4, "unit": "%"}]}
{"substance": "Paclitaxel-Suc-(Doc)4-Gaba-Gln-Trp-Ala-Val-βAla-His-Leu-Nle-NH2", "values": [{"measurement": "final HPLC purity", "setting": "[1]", "value": 97, "unit": "%"}, {"measurement": "isolated yield", "setting": "[1]", "value": 12.1, "unit": "%"}]}
{"substance": "H-Doc-Doc-Doc-Doc-Aepa-DPhe-cyclo(Cys-Tyr-DTrp-Lys(Aloc)-Abu-Cys)-Thr-NH2", "values": [{"measurement": "isolated mass", "setting": "whole synthesis", "value": 186, "unit": "mg"}, {"measurement": "isolated yield", "setting": "[1]", "value": 40, "unit": "% yield"}]}
{"substance": "Camptothecin-Gly-succinyl-(Doc)4-DPhe-c(Cys-Tyr-DTrp-Lys-Abu-Cys)-Thr-NH2", "values": [{"measurement": "final HPLC purity", "setting": "[1]", "value": 100, "unit": "%"}, {"measurement": "isolated yield", "setting": "[1]", "value": 31, "unit": "%"}]}
{"substance": "Paclitaxel-Sar-Suc-(Doc)4-Aepa-Gaba-Gln-Trp-Ala-Val-βAla-His-Leu-Nle-NH2", "values": [{"measurement": "final HPLC purity", "setting": "[1]", "value": 98, "unit": "%"}, {"measurement": "isolated yield", "setting": "[1]", "value": 13.4, "unit": "%"}]}
{"substance": "Camptothecin-20-(S)—O-glycinyl-succinyl-Aepa-(Doc)2-Gln-Trp-Ala-Val-βAla-His-Leu-Leu-NH2", "values": [{"measurement": "final HPLC purity", "setting": "[1]", "value": 99.9, "unit": "%"}]}
